Measurements as given in the supplement of paper PMC10973195.
± gives the standard deviation of the averaged measurements. The list shows a part of the results. These are raw signals, not scaled to a control.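 The test system is a mixed culture of neurons, microglia and astrocytes in which bacterial LPS triggers microglia-driven neuron loss, modelling inflammatory neurodegeneration. Each compound was compared with vehicle (DMSO) wells on the same plates, and the SYK inhibitor BAY61-3606 served as the reference neuroprotective control.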

Key:
Details in all cases: 1 µM, treatment time 3 days
[1] = test system: rat primary cerebellar neuron-glia coculture; test: microglia count (IB4+) per image field (cells per field); higher = more microglia
[2] = test system: rat primary cerebellar neuron-glia coculture; test: necrotic cell count (DRAQ7+) per image field (cells per field); higher = more necrosis
[3] = test system: rat primary cerebellar neuron-glia coculture; test: median microglial FormFactor (circularity) per image (dimensionless (0-1)); higher = rounder, more ameboid microglia

Structure (SMILES)	microglia count ([1]; LPS 0 ng/mL)	microglia count ([1]; LPS 100 ng/mL)	necrotic cell count ([2]; LPS 0 ng/mL)	necrotic cell count ([2]; LPS 100 ng/mL)	median microglial FormFactor ([3]; LPS 0 ng/mL)	median microglial FormFactor ([3]; LPS 100 ng/mL)
O=C(O)CS/C=C/c1ccccc1	165 ± 51	445 ± 99	72.8 ± 19	974 ± 360	0.546 ± 0.074	0.663 ± 0.069
Cc1ccc(-n2cnc3c(sc4nccc(N(C)C)c43)c2=O)cc1	168 ± 51	416 ± 74	83.4 ± 31	1020 ± 400	0.538 ± 0.078	0.679 ± 0.082
CCCCc1oc2ccccc2c1C(=O)c1cc(I)c(OCCN(CC)CC)c(I)c1	216 ± 65	422 ± 86	78.5 ± 24	951 ± 260	0.504 ± 0.095	0.66 ± 0.063
CC1(C)Cc2c(c(N3CCOCC3)nc3sc4c(NCCN5CCOCC5)ncnc4c23)CO1	174 ± 62	344 ± 36			0.517 ± 0.057	0.797 ± 0.041
Cc1noc(C)c1CC(=O)NCc1ccccc1Cl	167 ± 62	410 ± 100	83.2 ± 32	1020 ± 400	0.58 ± 0.1	0.672 ± 0.06
Cn1nc(-c2ccccn2)nc2c(=O)n(C)c(=O)nc1-2	175 ± 33	466 ± 140	83.6 ± 35	916 ± 300	0.504 ± 0.071	0.663 ± 0.053
COc1ccc(C(=O)C(=O)c2ccc(OC)cc2)cc1	169 ± 47	401 ± 88	84.1 ± 23	982 ± 330	0.566 ± 0.074	0.65 ± 0.066
N=C1CCCN1Cc1[nH]c(=O)[nH]c(=O)c1Cl	178 ± 70	402 ± 65	90.3 ± 26	1080 ± 320	0.549 ± 0.092	0.694 ± 0.049
O=C(Oc1nsnc1N1CCCCC1)N1CCOCC1	171 ± 65	439 ± 76	88.2 ± 41	908 ± 320	0.559 ± 0.082	0.686 ± 0.093
N#C[C@@H]1CC(F)(F)CN1C(=O)CNC(=O)c1ccnc2ccccc12	170 ± 49	443 ± 68	83.8 ± 28	935 ± 200	0.52 ± 0.077	0.661 ± 0.056
Cc1[nH]c(/C=C2\C(=O)Nc3ccc(S(=O)(=O)N(C)c4cccc(Cl)c4)cc32)c(C)c1C(=O)N1CCN(C)CC1	180 ± 89	422 ± 77	86 ± 29	992 ± 280	0.534 ± 0.063	0.702 ± 0.054
CCCC(=O)C1CCN(c2ncnc3c2CN(C(=O)c2ccc(-c4ccccc4)cc2)CC3)CC1	194 ± 84	457 ± 140	70.9 ± 33	657 ± 330	0.573 ± 0.075	0.674 ± 0.1
CC[C@H]1[C@@H](O)[C@@H]2[C@H](CC[C@]3(C)[C@@H]([C@H](C)CCC(=O)O)CC[C@@H]23)[C@@]2(C)CC[C@@H](O)C[C@@H]12	187 ± 96	418 ± 69	73.4 ± 17	1030 ± 270	0.564 ± 0.11	0.666 ± 0.063
Cc1cncn1CCCn1c(=S)[nH]c2ccccc2c1=O	152 ± 40	407 ± 55	94.4 ± 41	1130 ± 300	0.545 ± 0.071	0.694 ± 0.05
C[C@]12C=CC(=O)C=C1CC[C@H]1[C@@H]3C[C@@H](O)[C@](O)(C(=O)CO)[C@@]3(C)C[C@H](O)[C@@]12F	30.2 ± 23	278 ± 65	298 ± 110	210 ± 49	0.538 ± 0.085	0.662 ± 0.039
COc1ccc(N2CCOCC2)c2sc(NC(=O)N3CCC(C)(O)CC3)nc12	183 ± 99	440 ± 83	84.4 ± 29	889 ± 410	0.513 ± 0.084	0.636 ± 0.08
Cc1nc(NC(=O)N2CCC[C@H]2C(N)=O)sc1-c1ccnc(C(C)(C)C(F)(F)F)c1	125 ± 33	391 ± 78	264 ± 87	982 ± 480	0.495 ± 0.057	0.683 ± 0.089
CO/C(O)=C1\C(C)=NC(C)=C(C(=O)O[C@H]2CCN(Cc3ccccc3)C2)[C@H]1c1cccc([N+](=O)[O-])c1	270 ± 52	390 ± 81	58 ± 27	880 ± 350	0.424 ± 0.056	0.701 ± 0.057
Oc1noc2cc(Cl)ccc12	180 ± 75	434 ± 86	79.3 ± 34	895 ± 230	0.576 ± 0.097	0.715 ± 0.044
N#Cc1cccc(NC(=O)c2ccccn2)c1	182 ± 110	437 ± 72			0.575 ± 0.074	0.648 ± 0.066

2 records picked at random from those above, as already listed:
Structure (SMILES)	microglia count ([1]; LPS 0 ng/mL)	microglia count ([1]; LPS 100 ng/mL)	necrotic cell count ([2]; LPS 0 ng/mL)	necrotic cell count ([2]; LPS 100 ng/mL)	median microglial FormFactor ([3]; LPS 0 ng/mL)	median microglial FormFactor ([3]; LPS 100 ng/mL)
N#Cc1cccc(NC(=O)c2ccccn2)c1	182 ± 110	437 ± 72			0.575 ± 0.074	0.648 ± 0.066
O=C(O)CS/C=C/c1ccccc1	165 ± 51	445 ± 99	72.8 ± 19	974 ± 360	0.546 ± 0.074	0.663 ± 0.069

The list continues.

Structure (SMILES)	microglia count ([1]; LPS 0 ng/mL)	microglia count ([1]; LPS 100 ng/mL)	necrotic cell count ([2]; LPS 0 ng/mL)	necrotic cell count ([2]; LPS 100 ng/mL)	median microglial FormFactor ([3]; LPS 0 ng/mL)	median microglial FormFactor ([3]; LPS 100 ng/mL)
CCCC[n+]1c(/C=C/c2ccc(N(C)C)cc2)sc2ccccc21	365 ± 72	311 ± 64	304 ± 170	1630 ± 320	0.465 ± 0.061	0.624 ± 0.034
C[C@@H]1COCCN1c1cc(=O)n2c(n1)N(Cc1cncc(Cl)c1)[C@H](C(F)(F)F)CC2	111 ± 43	348 ± 56	213 ± 88	2990 ± 320	0.663 ± 0.067	0.781 ± 0.036
C[C@@H]1CN(C(=O)C[C@H](N)C(=O)N2Cc3ccccc3C2)CCN1C(c1ccc(F)cc1)c1ccc(F)cc1	248 ± 140	435 ± 98	78.6 ± 36	899 ± 350	0.501 ± 0.075	0.711 ± 0.043
O=C(C1CC1)N1CC[C@@H](Cc2n[nH]c(=O)n2-c2ccc(-c3ccc4occc4c3)cc2)C1	198 ± 130	436 ± 86	70.2 ± 30	991 ± 280	0.541 ± 0.1	0.673 ± 0.048
O=C(CN1C(=O)C2(CCCC2)NC[C@H]1c1cc(F)cc(F)c1)Nc1ccc2c(c1)C[C@@]1(C2)C(=O)Nc2ncccc21	327 ± 550	456 ± 82	73 ± 32	976 ± 370	0.545 ± 0.099	0.688 ± 0.053
c1ccc(C2=NCCN2)cc1	164 ± 58	465 ± 100	78.2 ± 23	825 ± 230	0.527 ± 0.077	0.652 ± 0.064
Cc1ccc(NC(=O)/C=C/c2ccccc2)cc1	156 ± 34	452 ± 87	81 ± 38	985 ± 280	0.581 ± 0.085	0.637 ± 0.072
COc1cc2c(NC3CCN(C(C)C)CC3)nc(C3CCCCC3)nc2cc1OCCCN1CCCC1	161 ± 34	406 ± 78	84.6 ± 31	931 ± 270	0.53 ± 0.095	0.689 ± 0.043
CCOP(=O)(OCC)C(=Cc1cc(C(C)(C)C)c(O)c(C(C)(C)C)c1)P(=O)(OCC)OCC	260 ± 57	481 ± 120	47.1 ± 19	1010 ± 430	0.506 ± 0.087	0.647 ± 0.098
CN(C(=O)c1ccccc1)c1ccc(C(O)(C(F)(F)F)C(F)(F)F)cc1	233 ± 36	503 ± 92	71.1 ± 26	202 ± 160	0.518 ± 0.096	0.656 ± 0.079
CCN(CC)CCOC(=O)C(c1ccccc1)c1ccccc1	179 ± 82	412 ± 78	96.3 ± 54	954 ± 410	0.512 ± 0.083	0.706 ± 0.078
COC(=O)C1=C(C)NC(C)=C(C(=O)OCCN(C)Cc2ccccc2)C1c1cccc([N+](=O)[O-])c1 (stereo unspecified)	258 ± 97	410 ± 77	74.6 ± 27	929 ± 410	0.458 ± 0.071	0.685 ± 0.071
COc1ccc(CC(=O)NCc2ccccc2-c2ccccc2C(=O)NCc2ccc(F)cc2F)cc1	165 ± 41	492 ± 110	79.9 ± 37	827 ± 440	0.545 ± 0.072	0.622 ± 0.088
CN(C(=O)CCCOc1ccc2[nH]c(=O)ccc2c1)C1CCCCC1	140 ± 33	454 ± 99	102 ± 32	841 ± 500	0.571 ± 0.094	0.68 ± 0.093
COc1cc(C(=O)NS(=O)(=O)c2ccccc2C)ccc1Cc1cn(C)c2ccc(NC(=O)OC3CCCC3)cc12	40.2 ± 15	376 ± 94	275 ± 92	208 ± 59	0.623 ± 0.096	0.633 ± 0.034
Cc1nc(-c2cnn(C)c2-c2ccc(C(F)(F)F)cn2)c2c(N3CCC3)ncnn12	199 ± 90	429 ± 86	83.2 ± 32	993 ± 220	0.576 ± 0.08	0.677 ± 0.071
O=C(c1ccc(-c2ccccc2)cc1)N1CCN(c2ccccn2)CC1	169 ± 46	459 ± 130	85.6 ± 27	948 ± 360	0.519 ± 0.094	0.639 ± 0.1
O=C1NCCCc2c1oc1ccc(O)cc21	172 ± 27	431 ± 90	97.2 ± 40	953 ± 360	0.491 ± 0.09	0.634 ± 0.074
CC(C)NCC(O)c1ccc(O)c(O)c1 (stereo unspecified)	179 ± 76	490 ± 140	82.5 ± 24	851 ± 370	0.555 ± 0.062	0.623 ± 0.078
NC[C@H](O)c1ccc(O)c(O)c1	118 ± 31	405 ± 37	127 ± 30	126 ± 51	0.609 ± 0.065	0.635 ± 0.035
